Laboratory results: a protein production outcome set (Wang et al. 2014)

test: label from the status in PepcDB records
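Note: failed if final PepcDB status was selected cloned or expressed and not failed if soluble or beyond.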

Sequence | protein production
EILDEEENFKAKGDIFSKRTITKAKVIDHVDTSLEALVLSVSEKGYVDFDYMGSLTGKDRATLIEELRGEIYLNIREEQNFYRPLSFNPEDGDLPFACANGSNSYKYGYVTKDEYLSGNIRDKIAIVDSYLSKLRQTERELPHLGFVENGKEKELISYEMNRLEYQKAELTKILPKELEASEINVRLGATWIPIKDIEKFIFETLKTPGYARWDIKVKFSNITSEWNVDGKSRDKGNDLAEMTFGTSRVNAYKLIEDALNLKETKVFDQIINPDGSKTSVLNKKETMLAGQKQELLKEEFKNWIFNDQERRNRLVKLYNERFNSIRNREYDGSNLSFEGMNTEIDLRPHQ | failed
LIANEKRFRLIIEASPSALFMVDKTGVITLVNTQGERLFGYTREELLGRSINMLLPETLREIHQQHLSHYLVHPIAKNMSMRDDLLGCCKDGTPLAVEVGLTPVHFSNGIYILTTINNISERKRIEAQRIEHMAELERINQELDRFAYIASHDLKSPL | failed
MAASVEDEFEDAPDVEPLEPTLKNIIEQKSLKWIFVGGKGGVGKTTCSCSLAVQLAAVRESVLTRFEEPTRSTLSPSSCWSPTALPKSDLNHSHGSNTHLFYTRAQTHCLSIWFSANALIDAAPVIHNECWARFKGTVHPNKVHFYSPSSACKHL | failed
MAMAIAMLPALFSSPSILTSRIRCGATANSGGAISSTSSNSDPRRGVPLYKPKSYEVLATDAANSLAFALQDSKSRLEIDFPPLPSSISSYKGSSDDFIDANIQLAVTVVRKLQEKIETRACIVFPDKPEKRRASQRFKAAFDSVDGISIGSLDDIPGTSVTNFFRSIRSTLDFDFEDENEGTWEPKEPPTLYIFINCSTRELSFIEKFVETFASSTPALLFNLELDTLRADLGLLGFPPKDLHYRFLSQFIPVFYIRTREYSKTVAVAPFVLNYNGALFRQYPGPWQVMLKQTDGSFACVAESPTRFTLGETKEELLQVLGLQEEKGSSLEFLRRGYKSATWWEEDVELEASSNWRN | failed
MAVSFLRIPIPSRVFWYPTRLIRVTPALLRFSSSAAFQPSSTSLSPPSSDNFLADKWESYRKKKVVIRIGYVGTDYRGLQIQRDDPSIKTIEGELEVAIYKAGGIRDSNYGDLHKIGWARSSRTDKGVHSLATSISLKMEIPETAWKDDPQGTVLAKCISKHLPENIRVFSVLPSNRRFDPRRECTLRKYSYLLPVDVLGIKNSFTSDEIDYHITDFNEILKEFEGEYPFHNYTQRSRYRRKSEQKIKQRNGRPPREPKSIKASESEFREENHIEIGEEEEEKEVDGESDEHVVTPDSDNSQVYSRAKWLYEPDETDKISGAHFRKVFRCRSGKLENSLGFGFVEISIWGESFMLHQIRKMIGTAVAVKRELLPRDIIRLSLNKFTRIVLPLAPSEVLILRGNSFEVRRLPERPGMEATGESEEVEKEIEEFYRAVMVPQVSIFLDSEKSPWKEWVDHLDRNDGLIDEELEDVRKGWEEWKAAKPWMNLKKTEDDEEALSSVSVPIHQAL | failed
MAYIDYYKILGVDKNASQDDIKKAFRKLARKYHPDLNPNDPSAKDKFQEINEANEVLSDPEKRKKYDEYGEHWKHADEFEAQKKARQHAGGGGGGFSGFGGDGGSYWYSSDGEGFSGGDAGGFSDFFESMFGHRGGGGRGNAGFRGQDFNAELHLSLRDAARTHKQVLNVNGKQVRITIPAGVADGQVIKLKGYGGEGINGGPAGDLYITFKIAEDSVFKRLGDDLYVDVEMDLYTAVLGGEKVIDTLEGKVKLKIKPETQNGTKVRLKGKGFPVYKKEGQFGDLIITYSVKIPTNLTDRQKELFRELQQSMN | failed
MDDAHESPSDKGGETGESDETAAVPGDPGATDTDGIPEETDGDADVDLKEAAAEEGELESQDVSDLTTVEREDSSLLNPAAKKLKIDTKEKKEKKQKVDEDEIQKMQILVSSFSEEQLNRYEMYRRSAFPKAAIKRLIQSITGTSVSQNVVIAMSGISKVFVGEVVEEALDVCEKWGEMPPLQPKHMREAVRRLKSKGQIPNSKHKKIIFF | not failed
MHHRMNEMNLSPVGMEQLTSSSVSNALPVSGSHLGLAASPTHSAIPAPGLPVAIPNLGPSLSSLPSALSLMLPMGIGDRGVMCGLPERNYTLPPPPYPHLESSYFRTILPGILSYLADRPPPQYIHPNSINVDGNTALSITNNPSALDPYQSNGNVGLEPGIVSIDSRSVNTHGAQSLHPSDGHEVALDTAITMENVSRVTSPISTDGMAEELTMDGVAGEHSQIPNGSRSHEPLSVDSVSNNLAADAVGHGGVIPMHGNGLELPVVMETDHIASRVNGMSDSALSDSIHTVAMSTNSVSVALSTSHNLASLESVSLHEVGLSLEPVAVSSITQEVAMGTGHVDVSSDSLSFVSPSLQMEDSNSNKENMATLFTIWCTLCDRAYPSDCPEHGPVTFVPDTPIESRARLSLPKQLVLRQSIVGAEVGVWTGETIPVRTCFGPLIGQQSHSMEVAEWTDKAVNHIWKIYHNGVLEFCIITTDENECNWMMFVRKARNREEQNLVAYPHDGKIFFCTSQDIPPENELLFYYSRDYAQQIGVPEHPDVHLCNCGKECNSYTEFKAHLTSHIHNHLPTQGHSGSHGPSHSKERKWKCSMCPQAFISPSKLHVHFMGHMGMKPHKCDFCSKAFSDPSNLRTHLKIHTGQKNYRCTLCDKSFTQKAHLESHMVIHTGEKNLKCDYCDKLFMRRQDLKQHVLIHTQERQIKCPKCDKLFLRTNHLKKHLNSHEGKRDYVCEKCTKAYLTKYHLTRHLKTCKGPTSSSSAPEEEEEDDSEEEDLADSVGTEDCRINSAVYSADESLSAHK | failed
MKFIRQLSLAAVLLVLPGASVAQVQPGQTFAARVVEVTDGDTFGVRRSAGGEVIIRLRGVDAPESDQPYGTAATRAARRYVGGKNVRVAVEEIGRYGRAVARIEAEGSDLGAMLIGDGLAWHYDEYAPNESEYRRLERQARNAKRGLWSQSSPVPPWEWRDRTSGPGETSFEDRDCSDFDTQPEAQRFFERHRSDSSGGDPHNLDRDGDGQACESLPGGRNM | failed
MKKKINCFIPFGNPKDTIQTVKELQASELVNKIYLLSADTNKECLPGCECLLINGLYSTSTIKTIADNADDASYLLLYTKQTPLKLGLYALERMTQIIQSSSENAMVYADHYQLVDGVLKQAPVIDYQQGSLRDDFDFGSVLLFNSEIFTLASSILEETVFQYAAFYEMRLMLGNLFQIIHINEFLYTEIETDTRKSGEKQFDYVNPKNREVQIEMEKVCIKHLKEINAYVRPSSRTVNLDREAFEFEASVIIPVRNRIRTIRDAVNSALSQQTTFPFNVIVIDNHSTDGTTEALQEFSADNRLIHIIPQENDLGIGGCWNVGVHHEKCGKFAVQLDSDDLYKDEHTLQKIVDTFYQQNCAMVIGTYLMTDFQMNEIAPGVIDHKEWTVEDGPNNALRINGLGAPRAFYTPILRKIKFPNTSYGEDYAIGLSISREYTIGRIYDVIYLCRRWEGNSDAALDIEKINRNNFYKDSIRTWELQARIRMHSIDESFQRLVNEMIEKQKKDWKLAKKNYKELEQNLKKEKTLELKLGGDTKRVRFFPNPQRAISTMAQTDSQSIQERPCFLCNDNRPAEQTSLSLGHYEVCLNPYPIFRRHLTIIEEEHTPQTIKNRFEDMLFLAENMNEFLILYNGPECGASAPDHMHFQAAGKEEKIANPFGMTFISDMLSSEDSVHSHLENGFTTSIGISSPNRRGIIEMFEYLYDKIVSIYHDKEPLINVIAWYGLETVNRTGGDEIKQWNCIIFLRSKHRPECYYAQGKKGLLISPAIAEMCGVFPIVREEDLDKITAKKITQIYKEVSLSQEQLKALTDQTS | failed
MLESGVLKEGALEKRSDGLLQLWKKKRCVLTEDGLVLHPHKHHHQHQHQQQHDTGCKVKELHFANMKTVDCVERKGKYVYFTVVMSEGREIDFRCLQDEGWNAEITLRMVQYKNRQAILAVKSSRQKQQQLLVVSAQKMVRSAQ | failed
MNLGWLSLLALIPILTVFLLLVVLRWPAKRAMPIAFFVTALAAYFLWEVPGHQIGAASVKGVVTALEVLFIVFGAVLLLNTLKESGAIHTIRQGFIEISPDRRVQAIIICWLFGSFIEGASGWGTPAAILAPLLVAIGFPAMASVMVALIIQSTPVSYGAVGTPILVGVSSGLAGADNVAVEASGLGLTVDEYVRMIGGQVSIIHGIVGLFIPLIMVTMLTFFFGKNRSLKEGCEVWPFAIFAGLAFTIPYMIVANVLGPEFPSLFGGLIGLAIVVPAAKKGWLLPKRSWSFAHESMWDPEWTGTLKADSLAEPTIRPWVAWLPYVLIGLLLVLTRLNGLPFGNWLKRLEFSVEGLFGTAISITSTPLFLPGFIMVIASLVGYVIYRMKVDSYMHAVKQSSAMIVRAAPALLFAVPMVQVFINSGDNASGFVSMPLVLAEGVSQLVGESWPLVAPVIGALGAFVAGSNTISNMMFSLFQFGTAENVGLNPATIVALQAVGGAAGNMICVHNVVAASATAGLIGKEGALIRKLLIPTGYYLFFAGAIGYVAFFGIGFNIGTIMAILVIIGIVWMIVKGNQQKKEKLNNIEEKFGG | failed
MQKKYITAIIGTTALSALASTHAQAATTHTVKSGESVWSISHKYGISIAKLKSLNGLTSNLIFPNQVLKVSGSSSRATSTNSGTVYTVKAGDSLSSIAAKYGTTYQKIMQLNGLNNYLIFPGQKLKVSGKATSSSRAKASGSSGRTATYTVKYGDSLSAIASKYGTTYQKIMQLNGLTNFFIYPGQKLKVPGGSSSSSSSNNTRSNGGYYSPTFNHQNLYTWGQCTWHVFNRRAEIGKGISTYWWNANNWDNASAADGYTIDYRPTVGSIAQTDAGYYGHVAFVERVNSDGSILVSEMNWSAAPGNMTYRTIPAYQVRNYKFIHLEHHHHHH | failed
MSGLWQSMTTAWMSRTDRSALLDFWLGGRGAGTLIANTDIDEQEMRRIRAAQINSVTRLTPVTMSINVANAALILFTFWDNDARPQLLAWTAMIVFAAGSAVQSWLRNRFEPRLEASAHAIRRMTLHALLLGLIWGAMPVMVFVKADPGDQLIVACVAAGMISGGAFTLSTVPRAGLAYTWSLAAGSALSLALCDGMAYRITAAFLVLYAVFMSRNLISHGEMFFDNLRAKFELERQTEIISLLLKDFQANASDWLWQTDAHGRLVHVPERFVEVAKLPPSLLIGAPLADVIGMLCPEDGRCAMGVAAKMAQREPMNDLVVHVVIGGTPRLWSLTAKPMFDAAGEFAGYRGVGRDVTERWRAEQAEAENRAKSSFLAMMSHEIRTPMNGVLGLANSLLETKLDPEQQQAVTTIRDSGDDLLRILNDILDLSKLEAGRLEFEQADFSPTTLVESVRAIIEPEVRGKGIELKVDIDPRLPPSLNGDAARIRQVLLNLAANAVKFTEQGSIAIVLTCVKRNDSHATVEWQVTDTGIGISPDRVGSLFTDFAQADVSINRRFGGTGLGLAISRRIVEQMGGDIAVTSREGEGSTFRFSLDLPWSNAWIADHRLDRLGSDDLRTRIAMLGRPLRVLIAEDDSTNQMVVMKMLQEFAAEITVVSDGTDAVQAAGEGEFDVVLMDVRMPNMDGLAATRAIRGKGGALAKLPIIALTANAFPDDVKVCRDAGMNDFLAKPLRKPALVAAVLRALRGASTPVTMPSPPMLVDLDTLAELTAEIGQDQVNEMVALFFAETERRIALFRRFAEHMDRHDLEVEAHSLKGGARTLGFHPIAEIARSIEREAGSISPEALDLFTGQLNKALIELRRQCEGSLKLAS | failed
MTATSLSKGANVAVDSPAVRAELVWSPGPGVPEVDASALLLTSAGRVRDDGDFVFYNQPRHTSGAVGHLGKRVGPGANAGLTTDAVEVDLRAVEAAVERIVLCASADGGTFGRVPGLSLRLLDAATGTELARFDITADTETALVGGELYRRAGTWKFRAVGQGYASGLAGLATDFGITVDDDAPPTAPATPATAPPTAPPVPAPPTTAVPPPPPALASPPVPAPAATGPRLTKGEERLPVDMRKRLSLRKEQVAVSLSKHGAAGITARVVLVLDASGSMSFLYSKGVVADVVERMAAVAAQLDDDGEMQAWTFASNPARLPDLPLGDLPKWLRLHVRVGEISLFRRGRKKGLHPEQVDMRAVGIQNEEQKVIAEVRAFVRANPAPVPTLVLFFSDGGVYRNAEIERELREAVEEPVFWQFVGLGRSNYGVLERFDTLPGRRVDNVGFFAVDDIGTVPDPELYDRLLSEFPSWVTAAGRAGIL | failed
